# Counter-ions that a name gives are not always drawn. Some of the results follow. The calls rarely recur for the same compound in another form.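 In K562 cells expressing nanoluciferase-fused kinases, luminescence was recorded at 4 h intervals between 2 and 18 h, normalized as percent of control with DMSO at 100% and a positive control at 0%. A significant (2 sigma) signal drop marks a time point as decreased. The authors' rule for a hit is not shown and takes in more than the number of time points.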
# Sequences of proteins named here, by UniProt entry; tags and fusion partners are left off. A change or cut given only in a name is not applied to a line headed by its entry.
# UniProt P00519, whole entry: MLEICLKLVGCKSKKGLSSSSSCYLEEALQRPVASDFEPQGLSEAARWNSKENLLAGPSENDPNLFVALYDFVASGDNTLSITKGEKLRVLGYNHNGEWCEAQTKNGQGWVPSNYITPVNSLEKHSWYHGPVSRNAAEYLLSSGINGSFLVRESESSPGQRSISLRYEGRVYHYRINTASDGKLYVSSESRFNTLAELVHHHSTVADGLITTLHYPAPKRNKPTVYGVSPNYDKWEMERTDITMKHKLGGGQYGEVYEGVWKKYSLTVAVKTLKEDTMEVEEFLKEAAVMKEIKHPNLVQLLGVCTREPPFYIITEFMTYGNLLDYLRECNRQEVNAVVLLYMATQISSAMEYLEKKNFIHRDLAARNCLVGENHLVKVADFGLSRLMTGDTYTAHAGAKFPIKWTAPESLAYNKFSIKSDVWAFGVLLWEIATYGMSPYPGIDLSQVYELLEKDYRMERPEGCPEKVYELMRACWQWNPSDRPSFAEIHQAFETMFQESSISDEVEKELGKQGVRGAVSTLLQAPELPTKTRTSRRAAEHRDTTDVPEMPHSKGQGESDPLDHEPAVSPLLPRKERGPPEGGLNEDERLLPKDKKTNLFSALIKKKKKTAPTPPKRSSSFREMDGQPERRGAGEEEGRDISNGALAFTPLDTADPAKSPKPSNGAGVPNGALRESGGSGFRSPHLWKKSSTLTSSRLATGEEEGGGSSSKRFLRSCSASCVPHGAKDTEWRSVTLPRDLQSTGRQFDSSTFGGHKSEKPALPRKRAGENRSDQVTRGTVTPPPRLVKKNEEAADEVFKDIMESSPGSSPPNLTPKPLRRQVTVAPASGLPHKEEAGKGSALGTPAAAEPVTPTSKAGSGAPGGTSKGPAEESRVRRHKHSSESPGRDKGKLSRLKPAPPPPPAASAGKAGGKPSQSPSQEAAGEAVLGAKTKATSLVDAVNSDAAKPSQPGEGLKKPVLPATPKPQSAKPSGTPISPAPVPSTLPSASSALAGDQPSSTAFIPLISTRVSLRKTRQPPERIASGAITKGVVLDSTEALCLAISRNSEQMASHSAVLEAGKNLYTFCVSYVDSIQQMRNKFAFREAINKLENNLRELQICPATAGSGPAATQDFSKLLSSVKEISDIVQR
# UniProt Q9UM73: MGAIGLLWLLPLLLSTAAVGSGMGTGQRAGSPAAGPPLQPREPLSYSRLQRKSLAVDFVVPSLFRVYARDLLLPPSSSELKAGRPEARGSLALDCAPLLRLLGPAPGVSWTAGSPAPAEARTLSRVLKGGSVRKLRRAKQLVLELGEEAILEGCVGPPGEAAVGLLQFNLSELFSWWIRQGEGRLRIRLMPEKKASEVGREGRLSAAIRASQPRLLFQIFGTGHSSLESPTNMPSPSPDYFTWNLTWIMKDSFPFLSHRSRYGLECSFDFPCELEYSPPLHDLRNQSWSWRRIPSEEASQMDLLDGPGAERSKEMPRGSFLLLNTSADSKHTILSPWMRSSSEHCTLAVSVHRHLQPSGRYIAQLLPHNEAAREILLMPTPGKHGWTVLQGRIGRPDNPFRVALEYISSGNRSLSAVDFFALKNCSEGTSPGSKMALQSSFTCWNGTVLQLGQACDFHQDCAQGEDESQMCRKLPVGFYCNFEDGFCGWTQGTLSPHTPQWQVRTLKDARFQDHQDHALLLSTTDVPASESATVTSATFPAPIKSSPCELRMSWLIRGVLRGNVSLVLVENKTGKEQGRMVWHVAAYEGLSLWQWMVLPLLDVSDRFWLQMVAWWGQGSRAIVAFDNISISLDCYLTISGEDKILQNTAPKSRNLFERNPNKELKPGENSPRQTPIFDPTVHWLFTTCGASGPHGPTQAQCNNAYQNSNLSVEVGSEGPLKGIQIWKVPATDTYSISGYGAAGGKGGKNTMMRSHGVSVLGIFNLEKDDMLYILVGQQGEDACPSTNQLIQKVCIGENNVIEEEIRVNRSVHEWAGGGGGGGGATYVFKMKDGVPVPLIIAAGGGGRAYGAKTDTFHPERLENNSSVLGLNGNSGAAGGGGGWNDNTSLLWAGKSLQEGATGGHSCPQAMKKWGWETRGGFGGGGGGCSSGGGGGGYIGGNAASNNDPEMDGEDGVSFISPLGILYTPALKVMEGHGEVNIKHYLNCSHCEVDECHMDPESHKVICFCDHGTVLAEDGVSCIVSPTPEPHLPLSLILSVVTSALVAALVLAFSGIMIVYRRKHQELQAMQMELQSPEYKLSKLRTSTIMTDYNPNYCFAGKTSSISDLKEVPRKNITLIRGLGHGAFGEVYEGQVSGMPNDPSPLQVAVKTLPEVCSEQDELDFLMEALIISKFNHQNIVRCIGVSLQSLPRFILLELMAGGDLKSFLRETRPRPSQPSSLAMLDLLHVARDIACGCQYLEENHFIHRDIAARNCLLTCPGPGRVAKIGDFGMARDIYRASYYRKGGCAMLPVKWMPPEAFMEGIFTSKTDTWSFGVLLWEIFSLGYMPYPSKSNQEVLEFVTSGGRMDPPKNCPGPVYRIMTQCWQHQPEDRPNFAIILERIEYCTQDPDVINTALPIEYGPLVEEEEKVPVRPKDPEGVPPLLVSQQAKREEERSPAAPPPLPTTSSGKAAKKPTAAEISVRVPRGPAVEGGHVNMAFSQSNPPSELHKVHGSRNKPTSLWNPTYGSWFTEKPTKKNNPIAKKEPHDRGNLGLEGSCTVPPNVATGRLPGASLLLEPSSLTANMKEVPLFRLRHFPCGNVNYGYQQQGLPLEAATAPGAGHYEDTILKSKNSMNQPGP
# UniProt P10398: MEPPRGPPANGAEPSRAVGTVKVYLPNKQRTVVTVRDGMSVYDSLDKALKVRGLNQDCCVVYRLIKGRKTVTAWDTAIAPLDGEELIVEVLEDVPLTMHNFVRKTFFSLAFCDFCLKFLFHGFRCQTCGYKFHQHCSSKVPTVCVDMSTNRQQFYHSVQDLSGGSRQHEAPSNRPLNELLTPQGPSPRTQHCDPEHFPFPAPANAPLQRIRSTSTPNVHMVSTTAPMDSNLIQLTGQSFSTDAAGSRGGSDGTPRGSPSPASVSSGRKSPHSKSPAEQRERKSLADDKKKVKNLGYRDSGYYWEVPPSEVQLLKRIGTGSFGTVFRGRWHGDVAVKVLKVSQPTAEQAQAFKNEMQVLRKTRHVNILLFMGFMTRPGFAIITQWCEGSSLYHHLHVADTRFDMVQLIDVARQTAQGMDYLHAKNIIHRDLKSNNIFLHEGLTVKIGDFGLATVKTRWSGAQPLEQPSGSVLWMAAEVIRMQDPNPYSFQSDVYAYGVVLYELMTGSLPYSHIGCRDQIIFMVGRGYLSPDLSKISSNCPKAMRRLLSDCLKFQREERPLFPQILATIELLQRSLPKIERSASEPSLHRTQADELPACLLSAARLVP
# UniProt O14965: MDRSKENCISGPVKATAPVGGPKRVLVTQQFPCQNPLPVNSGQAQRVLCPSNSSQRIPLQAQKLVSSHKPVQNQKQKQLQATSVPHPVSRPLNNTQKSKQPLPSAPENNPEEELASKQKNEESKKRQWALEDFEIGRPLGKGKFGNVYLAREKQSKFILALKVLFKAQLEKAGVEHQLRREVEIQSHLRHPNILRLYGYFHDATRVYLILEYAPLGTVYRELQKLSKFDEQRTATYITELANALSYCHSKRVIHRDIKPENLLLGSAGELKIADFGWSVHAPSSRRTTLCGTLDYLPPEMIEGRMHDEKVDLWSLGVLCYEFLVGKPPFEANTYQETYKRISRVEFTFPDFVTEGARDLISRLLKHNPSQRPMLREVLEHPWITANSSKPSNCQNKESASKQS
# UniProt Q96GD4, whole entry: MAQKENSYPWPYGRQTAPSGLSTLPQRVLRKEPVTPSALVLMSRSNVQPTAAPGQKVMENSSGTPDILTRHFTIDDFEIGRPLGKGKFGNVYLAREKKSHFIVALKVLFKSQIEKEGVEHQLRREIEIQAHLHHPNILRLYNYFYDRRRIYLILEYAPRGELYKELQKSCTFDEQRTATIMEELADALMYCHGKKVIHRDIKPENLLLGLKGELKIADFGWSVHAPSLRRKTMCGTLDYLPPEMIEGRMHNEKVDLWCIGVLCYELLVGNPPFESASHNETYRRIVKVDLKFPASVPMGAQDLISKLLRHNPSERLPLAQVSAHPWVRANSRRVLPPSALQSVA
# UniProt Q9UQB9: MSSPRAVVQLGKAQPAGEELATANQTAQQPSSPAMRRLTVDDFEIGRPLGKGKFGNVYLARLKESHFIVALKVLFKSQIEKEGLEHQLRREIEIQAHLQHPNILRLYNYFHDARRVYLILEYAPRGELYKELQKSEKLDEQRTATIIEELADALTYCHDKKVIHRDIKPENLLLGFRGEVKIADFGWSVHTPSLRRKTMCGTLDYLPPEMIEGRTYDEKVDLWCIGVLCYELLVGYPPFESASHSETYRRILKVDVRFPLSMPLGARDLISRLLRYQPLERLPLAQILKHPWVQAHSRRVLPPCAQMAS
# UniProt P51451: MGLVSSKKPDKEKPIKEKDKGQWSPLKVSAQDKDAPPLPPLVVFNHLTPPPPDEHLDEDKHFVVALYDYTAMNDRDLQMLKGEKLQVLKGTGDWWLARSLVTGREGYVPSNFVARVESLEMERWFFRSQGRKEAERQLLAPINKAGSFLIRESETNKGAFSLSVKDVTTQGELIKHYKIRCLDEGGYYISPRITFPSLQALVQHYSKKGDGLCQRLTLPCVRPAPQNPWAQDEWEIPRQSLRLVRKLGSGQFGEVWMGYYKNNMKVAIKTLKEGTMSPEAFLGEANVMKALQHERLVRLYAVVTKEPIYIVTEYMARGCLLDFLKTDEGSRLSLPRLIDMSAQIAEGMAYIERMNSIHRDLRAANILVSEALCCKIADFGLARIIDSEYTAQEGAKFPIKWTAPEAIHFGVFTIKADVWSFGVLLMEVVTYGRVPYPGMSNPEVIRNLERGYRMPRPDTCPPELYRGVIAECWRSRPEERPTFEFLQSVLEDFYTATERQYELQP
# UniProt P51813: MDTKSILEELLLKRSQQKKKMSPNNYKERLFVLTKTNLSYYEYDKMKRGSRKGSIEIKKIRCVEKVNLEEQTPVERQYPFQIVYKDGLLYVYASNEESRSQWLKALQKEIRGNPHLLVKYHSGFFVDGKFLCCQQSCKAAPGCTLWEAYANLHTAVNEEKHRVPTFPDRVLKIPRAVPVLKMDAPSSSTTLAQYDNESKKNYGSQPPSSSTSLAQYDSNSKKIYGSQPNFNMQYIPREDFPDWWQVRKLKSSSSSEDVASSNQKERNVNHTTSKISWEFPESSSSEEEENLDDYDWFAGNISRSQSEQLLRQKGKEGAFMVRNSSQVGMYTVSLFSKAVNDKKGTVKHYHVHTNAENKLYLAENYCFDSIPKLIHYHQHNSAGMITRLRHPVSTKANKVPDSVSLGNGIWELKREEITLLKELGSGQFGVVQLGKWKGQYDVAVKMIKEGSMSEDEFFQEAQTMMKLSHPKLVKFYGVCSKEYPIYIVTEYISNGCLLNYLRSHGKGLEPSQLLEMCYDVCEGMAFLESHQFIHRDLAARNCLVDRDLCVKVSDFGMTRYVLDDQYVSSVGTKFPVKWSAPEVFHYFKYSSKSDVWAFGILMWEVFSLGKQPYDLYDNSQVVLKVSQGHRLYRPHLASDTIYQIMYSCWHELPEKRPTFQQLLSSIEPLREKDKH
# UniProt P15056, whole entry, looked up: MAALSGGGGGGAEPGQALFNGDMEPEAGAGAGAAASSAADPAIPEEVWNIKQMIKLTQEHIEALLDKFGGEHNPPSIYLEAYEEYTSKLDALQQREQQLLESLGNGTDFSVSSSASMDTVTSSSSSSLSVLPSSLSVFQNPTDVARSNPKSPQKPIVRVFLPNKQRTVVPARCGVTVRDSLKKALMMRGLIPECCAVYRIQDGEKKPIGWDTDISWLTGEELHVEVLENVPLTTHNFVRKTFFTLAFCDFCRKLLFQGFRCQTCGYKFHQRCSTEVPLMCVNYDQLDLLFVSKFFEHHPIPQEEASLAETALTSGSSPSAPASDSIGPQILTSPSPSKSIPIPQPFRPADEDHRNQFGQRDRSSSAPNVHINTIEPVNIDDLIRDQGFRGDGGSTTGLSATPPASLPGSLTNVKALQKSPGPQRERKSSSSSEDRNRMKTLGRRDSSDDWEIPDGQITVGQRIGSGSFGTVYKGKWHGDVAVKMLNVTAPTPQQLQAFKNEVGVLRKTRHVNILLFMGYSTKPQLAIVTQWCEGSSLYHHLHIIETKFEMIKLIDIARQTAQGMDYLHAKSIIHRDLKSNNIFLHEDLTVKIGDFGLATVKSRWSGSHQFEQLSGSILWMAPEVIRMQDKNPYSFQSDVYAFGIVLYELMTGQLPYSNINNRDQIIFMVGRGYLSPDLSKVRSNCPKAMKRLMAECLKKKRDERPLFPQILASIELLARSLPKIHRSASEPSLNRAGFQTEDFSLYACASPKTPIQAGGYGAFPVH
# How the values were obtained:
# Assay in all cases: kinase-Nluc reporter destabilization hit call (1 = scored as downregulated) (binary); higher = compound decreases kinase abundance
# Conditions in all cases: K562; 2-18 h
# ABL1 = ABL1 (UniProt P00519)
# AKT1 = AKT1 (UniProt P31749)
# ALK = ALK (UniProt Q9UM73)
# ARAF = ARAF (UniProt P10398)
# AURKA = AURKA (UniProt O14965)
# AURKB = AURKB (UniProt Q96GD4)
# AURKC = AURKC (UniProt Q9UQB9)
# BLK = BLK (UniProt P51451)
# BMX = BMX (UniProt P51813)
# BRAF = BRAF (UniProt P15056)
Compound,kinase-Nluc reporter destabilization hit call (ABL1),kinase-Nluc reporter destabilization hit call (AKT1),kinase-Nluc reporter destabilization hit call (ALK),kinase-Nluc reporter destabilization hit call (ARAF),kinase-Nluc reporter destabilization hit call (AURKA),kinase-Nluc reporter destabilization hit call (AURKB),kinase-Nluc reporter destabilization hit call (AURKC),kinase-Nluc reporter destabilization hit call (BLK),kinase-Nluc reporter destabilization hit call (BMX),kinase-Nluc reporter destabilization hit call (BRAF)
O=C(CNc1cccc(Cl)c1)NC1CCCN(c2ncnc3[nH]ccc23)C1 (stereo not given) (10 µM),inactive: 0,inactive: 0,inactive: 0,inactive: 0,inactive: 0,inactive: 0,inactive: 0,inactive: 0,inactive: 0,inactive: 0
C[C@H](NC(=O)[C@H]1NCC[C@@H]1O)c1ccc(-c2noc(CCC3CCCC3)n2)cc1 (10 µM),inactive: 0,inactive: 0,inactive: 0,inactive: 0,inactive: 0,inactive: 0,inactive: 0,inactive: 0,inactive: 0,inactive: 0
COc1ccc(S(=O)(=O)NCc2ccc(C(=O)NCCc3ccc(Cl)cn3)cc2)cc1 (10 µM),inactive: 0,inactive: 0,inactive: 0,inactive: 0,inactive: 0,inactive: 0,inactive: 0,inactive: 0,inactive: 0,inactive: 0
NC(=O)c1cnc2[nH]ccc2c1N[C@@H]1[C@@H]2CC3C[C@H]1C[C@@](O)(C3)C2 [Peficitinib] (10 µM),inactive: 0,inactive: 0,inactive: 0,inactive: 0,inactive: 0,inactive: 0,inactive: 0,inactive: 0,inactive: 0,inactive: 0
CCn1c(=O)c(-c2cc[nH]n2)cc2c(C)nc(N)nc21 [Voxtalisib] (10 µM),inactive: 0,inactive: 0,inactive: 0,inactive: 0,inactive: 0,inactive: 0,inactive: 0,inactive: 0,inactive: 0,inactive: 0
Cn1cc(-c2cnc3cnn(S(=O)(=O)c4cnc5ccc(-c6cnn(C)c6)cn45)c3c2)cn1 [Glumetinib] (10 µM),inactive: 0,inactive: 0,inactive: 0,inactive: 0,inactive: 0,inactive: 0,inactive: 0,inactive: 0,inactive: 0,inactive: 0
C[C@@H]1COCCN1c1nc(-c2cnc(N)cc2C(F)F)nc(N2[C@H](C)COC[C@@H]2C)n1 (2.5 µM),active: 1,inactive: 0,inactive: 0,inactive: 0,inactive: 0,inactive: 0,inactive: 0,inactive: 0,inactive: 0,inactive: 0
Nc1nccc(Oc2ccc(NC(=O)c3c[nH]cc(-c4ccc(F)cc4)c3=O)cc2F)c1Cl (10 µM),inactive: 0,inactive: 0,inactive: 0,inactive: 0,inactive: 0,inactive: 0,inactive: 0,inactive: 0,inactive: 0,inactive: 0
COc1cc(-c2cn[nH]c2)ccc1C(=O)Nc1ccc2c(c1)CCNCC2 (10 µM),inactive: 0,inactive: 0,inactive: 0,inactive: 0,inactive: 0,inactive: 0,inactive: 0,inactive: 0,inactive: 0,inactive: 0
O=C(Nc1nc2ccccc2[nH]1)c1cccc([N+](=O)[O-])c1 [IRAK-4 protein kinase inhibitor 2] (10 µM),inactive: 0,inactive: 0,inactive: 0,inactive: 0,inactive: 0,inactive: 0,inactive: 0,inactive: 0,inactive: 0,inactive: 0
O=C(O)c1cc(N(Cc2ccccc2O)Cc2ccccc2O)ccc1O [Lavendustin B] (10 µM),inactive: 0,inactive: 0,inactive: 0,inactive: 0,inactive: 0,inactive: 0,inactive: 0,inactive: 0,inactive: 0,inactive: 0
CNC(=O)c1ccccc1Nc1nc(Nc2ccc3c(c2OC)CCC[C@H](N2CCN(CCO)CC2)C3)ncc1Cl (10 µM),active: 1,inactive: 0,inactive: 0,inactive: 0,inactive: 0,inactive: 0,inactive: 0,inactive: 0,inactive: 0,inactive: 0
O=C1NC(=O)C(c2cnc3ccccn23)=C1c1cn2c3c(cc(F)cc13)CNCC2 [GSK-3 inhibitor 1] (2.5 µM),inactive: 0,inactive: 0,inactive: 0,inactive: 0,inactive: 0,inactive: 0,inactive: 0,inactive: 0,inactive: 0,inactive: 0
CN1CC[C@@H](c2c(O)cc(O)c3c(=O)cc(-c4ccc(C(F)(F)F)cc4Cl)oc23)[C@@H]1CO [Voruciclib (hydrochloride)] (10 µM),inactive: 0,inactive: 0,inactive: 0,inactive: 0,inactive: 0,inactive: 0,inactive: 0,inactive: 0,inactive: 0,inactive: 0
Nc1n[nH]c2nc(-c3ccc(NS(=O)(=O)c4cc(Cl)ccc4F)cc3)cnc12 (10 µM),inactive: 0,inactive: 0,inactive: 0,inactive: 0,inactive: 0,inactive: 0,inactive: 0,inactive: 0,inactive: 0,inactive: 0

# A different layout for part of the listing above.
Compound | kinase-Nluc reporter destabilization hit call (ABL1) | kinase-Nluc reporter destabilization hit call (AKT1) | kinase-Nluc reporter destabilization hit call (ALK) | kinase-Nluc reporter destabilization hit call (ARAF) | kinase-Nluc reporter destabilization hit call (AURKA) | kinase-Nluc reporter destabilization hit call (AURKB) | kinase-Nluc reporter destabilization hit call (AURKC) | kinase-Nluc reporter destabilization hit call (BLK) | kinase-Nluc reporter destabilization hit call (BMX) | kinase-Nluc reporter destabilization hit call (BRAF)
NC(=O)c1cnc2[nH]ccc2c1N[C@@H]1[C@@H]2CC3C[C@H]1C[C@@](O)(C3)C2 [Peficitinib] (10 µM) | inactive: 0 | inactive: 0 | inactive: 0 | inactive: 0 | inactive: 0 | inactive: 0 | inactive: 0 | inactive: 0 | inactive: 0 | inactive: 0
CCn1c(=O)c(-c2cc[nH]n2)cc2c(C)nc(N)nc21 [Voxtalisib] (10 µM) | inactive: 0 | inactive: 0 | inactive: 0 | inactive: 0 | inactive: 0 | inactive: 0 | inactive: 0 | inactive: 0 | inactive: 0 | inactive: 0

# From the supplement of paper PMC12823440, “Inhibitors supercharge kinase turnover through native proteolytic circuits” (Nature, 2025)
